{"source": "paper PMC12481576", "about": "“Barbituric Acid Derivatives as Covalent Inhibitors of Leishmania braziliensis Dihydroorotate Dehydrogenase” (Journal of Medicinal Chemistry, 2025)", "key": {"[1]": {"assay": "Mouse liver microsome stability in the absence of cofactors (NCF)", "conditions": "mouse liver microsomes, 60 min, no cofactor (NCF), raw LC-MS area"}, "[2]": {"conditions": "mouse liver microsomes, raw LC-MS area; for Raw data: analyte peak area, T=0: 0 min; for Raw data: analyte peak area, T=5: 5 min; for Raw data: analyte peak area, T=10: 10 min; for Raw data: analyte peak area, T=20: 20 min; for Raw data: analyte peak area, T=30: 30 min; for Raw data: analyte peak area, T=60: 60 min"}}, "note": "Like-named read-outs stand apart in the source and are kept apart here."}
{"smiles": "CC(C)NCC(O)COc1ccc(CC(N)=O)cc1", "note": "(centres unmarked) [Atenolol]", "values": [{"measurement": "Raw data: analyte peak area, T=60 NCF", "setting": "[1]; replicate 1 (left block)", "value": 21227}, {"measurement": "Raw data: analyte peak area, T=60 NCF", "setting": "[1]; replicate 2 (right block)", "value": 25265}, {"measurement": "Raw data: analyte peak area, T=0", "setting": "[2]; replicate 1 (left block)", "value": 19339}, {"measurement": "Raw data: analyte peak area, T=0", "setting": "[2]; replicate 2 (right block)", "value": 26048}, {"measurement": "Raw data: analyte peak area, T=5", "setting": "[2]; replicate 1 (left block)", "value": 22550}, {"measurement": "Raw data: analyte peak area, T=5", "setting": "[2]; replicate 2 (right block)", "value": 23821}, {"measurement": "Raw data: analyte peak area, T=10", "setting": "[2]; replicate 1 (left block)", "value": 21659}, {"measurement": "Raw data: analyte peak area, T=10", "setting": "[2]; replicate 2 (right block)", "value": 23305}, {"measurement": "Raw data: analyte peak area, T=20", "setting": "[2]; replicate 1 (left block)", "value": 19803}, {"measurement": "Raw data: analyte peak area, T=20", "setting": "[2]; replicate 2 (right block)", "value": 17879}, {"measurement": "Raw data: analyte peak area, T=30", "setting": "[2]; replicate 1 (left block)", "value": 17561}, {"measurement": "Raw data: analyte peak area, T=30", "setting": "[2]; replicate 2 (right block)", "value": 17623}, {"measurement": "Raw data: analyte peak area, T=60", "setting": "[2]; replicate 1 (left block)", "value": 19289}, {"measurement": "Raw data: analyte peak area, T=60", "setting": "[2]; replicate 2 (right block)", "value": 20334}]}
